Data taken from PubChem BioAssay AID1458 (National Center for Advancing Translational Sciences (NCATS), 2008).
The whole screen tested about 210,000 compounds, of which about 5,900 (2.8%) were called active. Inconclusive results (about 5%) are left out. Calls come from the whole dose curve; as a rule, active = well fitted activation curve with a large enough effect; inconclusive = small, poorly fitted or top-dose-only effect; inactive = no such curve, though single readings can be large or run the other way. The entries are a selection whose mix differs from that of the whole data set. Where no call is shown, the source filed none.
Potency is the fitted concentration of half-maximal effect.

Assay: qHTS Assay for Enhancers of SMN2 Splice Variant Expression; note: nearly all actives have a fitted effect of over 55% in size; for activity change, positive = activation: % of control where 0% means no effect
Conditions: HEK293 SMN2-luciferase splicing reporter, luminescence, 30-36 h; activity change, positive = activation: at 46.1 µM (top of the series) unless noted
Summary of the method: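 HEK293 cells carry an SMN2 minigene-luciferase reporter in which exon 7 inclusion puts luciferase in frame. Cells were seeded at 2000 cells/well, attached for 10-12 hours, then exposed to compounds for 30-36 hours at 37C before ONE-Glo luminescence.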
In the case of `COc1cccc(NC(=O)Nc2ccc(C)c(Cl)c2)c1`, the Potency is reported as active: 12.6 µM. Molecule `O=C(NC(=S)Nc1cccnc1)c1cc2ccccc2o1` has an activity change, positive = activation of 117%. For `Cc1ccc(-c2nnc(N3CCN(C(=O)COc4ccccc4)CC3)c3ccccc23)cc1`, the “activity change, positive = activation” value was inactive: -53.8%. `C[C@H](NC(=O)OC(C)(C)C)c1nnc(SCc2c(F)cccc2Cl)o1` showed an activity change, positive = activation of -47.5%. With `Cc1nc2ccc(NC(=O)NCCO)cc2s1` the activity change, positive = activation was 36%. In the case of `CC(C)(C)NC(=O)C(c1ccco1)N(Cc1ccc2c(c1)OCO2)C(=O)Cn1nnc2ccccc21` (stereo not given), the activity change, positive = activation is reported as 39.1%. With `COc1ccc(Nc2ccccc2)c(C)c1` the activity change, positive = activation was 32.6%. For `O=C(CSc1ccc(F)cc1)N1CCC(c2nc3ccccc3s2)CC1`, the activity change, positive = activation was -53.3%. For `Cc1cc(C)c(-c2cc(NC(=O)COC(=O)c3ccc(CO)cc3)n(-c3ccccc3)n2)cc1C`, the activity change, positive = activation was 19.3%. With `O=C(CCCc1cccs1)Nc1ccc2c(c1)OCO2` the Potency was active: 14.1 µM. With `O=C(NO)c1ccccc1O` the “activity change, positive = activation” value was inactive: -0.224%. For `O=C1CC(c2ccco2)Cc2nc(N3CCN(Cc4ccc5c(c4)OCO5)CC3)ncc21` (stereo not given), the activity change, positive = activation was -51.8%. `CCOc1ccc(NC(=O)CN2C(=O)C3CC=CCC3C2=O)cc1` (stereo not given) gave an activity change, positive = activation of 33.4%. In the case of `O=C(N/N=C/c1ccc(F)cc1)c1ccccc1`, the Potency is reported as active: 17.8 µM. For `COC(=O)c1ccc(-n2nnnc2SCc2nn[nH]n2)cc1`, the activity change, positive = activation was 30.9%. With `Cc1ccc2nc(-c3ccc(SCC(=O)Nc4nc(C)cs4)nc3)[nH]c2c1` the Potency was active: 6.31 µM. With `O=C(NCc1ccco1)C1CC(=O)N(c2ccc(O)cc2)C1` (stereo not given) the activity change, positive = activation was 39.3%. `CC(C)=N/N=C1/NC(=O)C(CC(=O)Nc2cc(Cl)ccc2C)S1` (stereo not given) showed an activity change, positive = activation of 30.8%. With `O=c1c2c3c(sc2nc2sc(C4CC4)nn12)CCCC3` the Potency was active: 7.94 µM. With `NC(=S)NNC(=O)c1cccc(Br)c1` the “activity change, positive = activation” value was inactive: 23.7%.
